# According to the supplement of paper PMC12067093, “Discovery and optimisation of a covalent ligand for TRIM25 and its application to targeted protein ubiquitination” (Chemical Science, 2025):
# The chains behind the UniProt entries cited, without tags or fusion partners. Where a name states a change or a piece, a line headed by the entry shows the natural chain unless it says otherwise.
# UniProt P58546, whole entry, looked up: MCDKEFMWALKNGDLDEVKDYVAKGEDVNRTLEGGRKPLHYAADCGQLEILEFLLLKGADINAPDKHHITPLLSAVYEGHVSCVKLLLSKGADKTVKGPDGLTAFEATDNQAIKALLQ
# UniProt Q9BQG0: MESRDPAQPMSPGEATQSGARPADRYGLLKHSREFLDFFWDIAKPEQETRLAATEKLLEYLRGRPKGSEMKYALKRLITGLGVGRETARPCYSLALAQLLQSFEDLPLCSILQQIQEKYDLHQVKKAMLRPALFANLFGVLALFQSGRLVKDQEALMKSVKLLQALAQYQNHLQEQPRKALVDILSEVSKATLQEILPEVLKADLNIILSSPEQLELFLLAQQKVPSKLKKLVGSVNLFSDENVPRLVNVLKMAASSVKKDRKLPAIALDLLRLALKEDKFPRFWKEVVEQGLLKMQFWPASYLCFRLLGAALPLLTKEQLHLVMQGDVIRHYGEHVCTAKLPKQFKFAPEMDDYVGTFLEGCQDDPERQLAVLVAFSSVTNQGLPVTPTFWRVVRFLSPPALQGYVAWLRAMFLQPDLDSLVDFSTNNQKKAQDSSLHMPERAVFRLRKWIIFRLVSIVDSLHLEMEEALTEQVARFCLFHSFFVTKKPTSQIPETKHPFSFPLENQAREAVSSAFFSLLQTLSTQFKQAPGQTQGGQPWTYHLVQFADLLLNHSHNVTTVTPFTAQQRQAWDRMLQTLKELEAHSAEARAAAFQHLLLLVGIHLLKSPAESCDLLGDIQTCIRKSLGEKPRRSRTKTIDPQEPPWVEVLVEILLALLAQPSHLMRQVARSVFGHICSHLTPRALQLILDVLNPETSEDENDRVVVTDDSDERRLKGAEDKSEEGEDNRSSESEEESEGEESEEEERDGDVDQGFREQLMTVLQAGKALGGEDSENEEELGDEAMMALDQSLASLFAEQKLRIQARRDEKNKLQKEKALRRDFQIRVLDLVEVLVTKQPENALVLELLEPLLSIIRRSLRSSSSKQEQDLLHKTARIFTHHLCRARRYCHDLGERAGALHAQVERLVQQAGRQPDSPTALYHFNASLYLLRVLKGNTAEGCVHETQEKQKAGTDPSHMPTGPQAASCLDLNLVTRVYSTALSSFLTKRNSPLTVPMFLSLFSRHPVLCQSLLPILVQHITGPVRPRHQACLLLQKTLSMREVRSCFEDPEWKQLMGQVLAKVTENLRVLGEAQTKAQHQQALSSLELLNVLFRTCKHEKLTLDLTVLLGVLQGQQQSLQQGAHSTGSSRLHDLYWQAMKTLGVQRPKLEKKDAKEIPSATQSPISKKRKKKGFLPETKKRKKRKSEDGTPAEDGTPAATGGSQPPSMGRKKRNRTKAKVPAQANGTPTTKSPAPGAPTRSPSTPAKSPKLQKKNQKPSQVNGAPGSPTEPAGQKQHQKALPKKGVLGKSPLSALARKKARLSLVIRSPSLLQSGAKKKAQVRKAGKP
# UniProt Q99707: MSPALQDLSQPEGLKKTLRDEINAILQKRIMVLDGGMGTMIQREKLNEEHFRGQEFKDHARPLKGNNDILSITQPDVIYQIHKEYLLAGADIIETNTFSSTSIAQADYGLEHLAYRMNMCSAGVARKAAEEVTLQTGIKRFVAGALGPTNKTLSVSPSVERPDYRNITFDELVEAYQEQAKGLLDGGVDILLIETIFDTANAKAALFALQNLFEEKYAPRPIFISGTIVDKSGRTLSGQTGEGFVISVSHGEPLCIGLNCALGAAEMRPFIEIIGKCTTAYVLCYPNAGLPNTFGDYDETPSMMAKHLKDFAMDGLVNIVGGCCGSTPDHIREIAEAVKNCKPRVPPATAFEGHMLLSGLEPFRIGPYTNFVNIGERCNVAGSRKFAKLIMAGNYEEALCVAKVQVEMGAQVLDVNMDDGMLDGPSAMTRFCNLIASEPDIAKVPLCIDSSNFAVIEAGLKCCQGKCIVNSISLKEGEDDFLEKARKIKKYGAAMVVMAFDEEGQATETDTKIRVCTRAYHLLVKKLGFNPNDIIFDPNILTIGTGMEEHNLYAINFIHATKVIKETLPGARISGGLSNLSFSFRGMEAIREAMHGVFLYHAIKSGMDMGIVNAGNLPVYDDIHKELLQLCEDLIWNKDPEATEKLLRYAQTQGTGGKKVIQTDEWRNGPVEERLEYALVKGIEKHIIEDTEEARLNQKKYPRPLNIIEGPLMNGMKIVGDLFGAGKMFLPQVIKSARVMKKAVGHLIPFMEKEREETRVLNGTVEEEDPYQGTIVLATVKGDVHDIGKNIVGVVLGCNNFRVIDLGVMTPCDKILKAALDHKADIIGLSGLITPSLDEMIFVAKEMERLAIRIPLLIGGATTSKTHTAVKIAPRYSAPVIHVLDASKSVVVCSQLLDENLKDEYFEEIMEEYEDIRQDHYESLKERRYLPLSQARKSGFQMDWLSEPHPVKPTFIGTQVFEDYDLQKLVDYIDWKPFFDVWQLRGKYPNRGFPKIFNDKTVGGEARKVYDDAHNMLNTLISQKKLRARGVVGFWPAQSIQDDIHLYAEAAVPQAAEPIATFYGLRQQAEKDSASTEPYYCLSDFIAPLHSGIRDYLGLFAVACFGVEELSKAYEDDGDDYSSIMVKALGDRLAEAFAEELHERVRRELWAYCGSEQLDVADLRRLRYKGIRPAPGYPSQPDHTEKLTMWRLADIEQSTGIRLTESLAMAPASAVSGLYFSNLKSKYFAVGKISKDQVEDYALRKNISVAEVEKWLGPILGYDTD
# UniProt P49914: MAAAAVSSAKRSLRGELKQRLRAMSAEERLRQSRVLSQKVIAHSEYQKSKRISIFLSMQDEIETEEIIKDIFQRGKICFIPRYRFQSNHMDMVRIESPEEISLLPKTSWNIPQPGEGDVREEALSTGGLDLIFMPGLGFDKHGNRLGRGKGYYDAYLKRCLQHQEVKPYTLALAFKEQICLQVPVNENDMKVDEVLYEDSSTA
# UniProt P11586, whole entry, looked up: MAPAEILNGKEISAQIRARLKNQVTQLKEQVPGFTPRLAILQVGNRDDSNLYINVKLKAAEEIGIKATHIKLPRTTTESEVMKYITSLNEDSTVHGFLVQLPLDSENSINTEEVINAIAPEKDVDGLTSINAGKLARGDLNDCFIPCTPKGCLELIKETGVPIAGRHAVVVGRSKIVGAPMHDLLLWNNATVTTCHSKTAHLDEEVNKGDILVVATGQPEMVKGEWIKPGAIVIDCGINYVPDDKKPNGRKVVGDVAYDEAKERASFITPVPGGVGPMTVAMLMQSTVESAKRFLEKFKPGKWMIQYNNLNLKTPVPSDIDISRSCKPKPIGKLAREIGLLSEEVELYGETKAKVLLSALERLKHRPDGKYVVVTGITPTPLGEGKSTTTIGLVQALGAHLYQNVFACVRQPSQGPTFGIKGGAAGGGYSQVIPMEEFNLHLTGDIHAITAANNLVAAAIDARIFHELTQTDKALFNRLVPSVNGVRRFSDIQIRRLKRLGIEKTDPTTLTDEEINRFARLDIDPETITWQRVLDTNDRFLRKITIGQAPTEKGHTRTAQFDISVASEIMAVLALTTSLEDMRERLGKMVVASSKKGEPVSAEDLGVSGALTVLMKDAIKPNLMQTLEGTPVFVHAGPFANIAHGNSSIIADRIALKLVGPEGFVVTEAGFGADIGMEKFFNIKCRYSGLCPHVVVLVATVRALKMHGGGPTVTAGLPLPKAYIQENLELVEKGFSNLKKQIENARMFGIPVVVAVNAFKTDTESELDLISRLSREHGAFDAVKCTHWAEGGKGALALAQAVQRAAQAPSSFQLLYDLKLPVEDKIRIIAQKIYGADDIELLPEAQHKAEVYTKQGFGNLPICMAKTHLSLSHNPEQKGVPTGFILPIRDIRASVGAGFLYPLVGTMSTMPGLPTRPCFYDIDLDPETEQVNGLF
# UniProt P35579, whole entry, looked up: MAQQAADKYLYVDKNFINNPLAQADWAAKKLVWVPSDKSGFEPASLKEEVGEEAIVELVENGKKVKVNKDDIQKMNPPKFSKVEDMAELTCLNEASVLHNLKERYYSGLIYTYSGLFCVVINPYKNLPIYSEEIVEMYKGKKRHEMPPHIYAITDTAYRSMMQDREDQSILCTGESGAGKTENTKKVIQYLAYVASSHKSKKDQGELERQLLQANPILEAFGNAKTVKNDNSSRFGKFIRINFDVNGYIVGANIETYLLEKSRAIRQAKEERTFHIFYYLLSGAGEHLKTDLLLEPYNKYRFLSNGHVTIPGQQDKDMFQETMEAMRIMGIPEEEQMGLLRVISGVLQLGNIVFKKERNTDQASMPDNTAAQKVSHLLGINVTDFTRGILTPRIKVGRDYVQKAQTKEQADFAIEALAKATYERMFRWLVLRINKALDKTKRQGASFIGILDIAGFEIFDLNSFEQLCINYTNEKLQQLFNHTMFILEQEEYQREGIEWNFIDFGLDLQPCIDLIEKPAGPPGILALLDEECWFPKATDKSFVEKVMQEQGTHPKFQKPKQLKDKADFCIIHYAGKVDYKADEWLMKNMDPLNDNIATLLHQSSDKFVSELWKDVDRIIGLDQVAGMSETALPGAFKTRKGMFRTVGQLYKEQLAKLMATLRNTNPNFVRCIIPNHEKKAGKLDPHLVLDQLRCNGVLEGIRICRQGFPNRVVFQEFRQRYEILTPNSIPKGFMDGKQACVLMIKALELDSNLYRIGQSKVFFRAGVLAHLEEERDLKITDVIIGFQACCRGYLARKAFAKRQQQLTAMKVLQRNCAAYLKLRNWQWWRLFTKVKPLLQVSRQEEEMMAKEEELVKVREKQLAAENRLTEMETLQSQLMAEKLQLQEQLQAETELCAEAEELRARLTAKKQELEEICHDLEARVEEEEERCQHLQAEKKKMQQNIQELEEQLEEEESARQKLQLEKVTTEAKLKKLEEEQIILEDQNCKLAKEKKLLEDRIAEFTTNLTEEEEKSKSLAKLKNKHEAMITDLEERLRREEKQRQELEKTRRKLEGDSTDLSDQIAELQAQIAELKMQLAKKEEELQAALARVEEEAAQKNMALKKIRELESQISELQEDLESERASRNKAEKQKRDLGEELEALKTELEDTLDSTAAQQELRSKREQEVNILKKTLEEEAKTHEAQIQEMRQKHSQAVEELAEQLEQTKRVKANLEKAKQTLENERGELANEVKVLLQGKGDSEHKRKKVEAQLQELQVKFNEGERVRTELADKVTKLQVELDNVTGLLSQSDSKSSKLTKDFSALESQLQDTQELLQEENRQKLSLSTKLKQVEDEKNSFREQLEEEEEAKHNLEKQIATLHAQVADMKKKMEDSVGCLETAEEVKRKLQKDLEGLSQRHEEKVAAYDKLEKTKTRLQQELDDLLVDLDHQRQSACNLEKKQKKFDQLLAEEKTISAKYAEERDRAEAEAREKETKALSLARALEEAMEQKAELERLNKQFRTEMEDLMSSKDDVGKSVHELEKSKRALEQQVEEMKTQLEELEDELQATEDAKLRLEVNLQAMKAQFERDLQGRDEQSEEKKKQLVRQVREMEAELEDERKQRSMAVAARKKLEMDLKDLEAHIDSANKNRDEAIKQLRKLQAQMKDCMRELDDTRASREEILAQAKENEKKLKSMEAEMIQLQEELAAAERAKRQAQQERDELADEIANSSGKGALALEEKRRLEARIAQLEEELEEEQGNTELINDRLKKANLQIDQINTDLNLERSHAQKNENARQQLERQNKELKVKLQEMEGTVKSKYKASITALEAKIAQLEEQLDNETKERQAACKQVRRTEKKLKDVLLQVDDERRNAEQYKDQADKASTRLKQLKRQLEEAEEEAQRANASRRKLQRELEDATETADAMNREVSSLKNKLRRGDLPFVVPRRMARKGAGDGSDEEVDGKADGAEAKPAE
# UniProt Q99836, whole entry, looked up: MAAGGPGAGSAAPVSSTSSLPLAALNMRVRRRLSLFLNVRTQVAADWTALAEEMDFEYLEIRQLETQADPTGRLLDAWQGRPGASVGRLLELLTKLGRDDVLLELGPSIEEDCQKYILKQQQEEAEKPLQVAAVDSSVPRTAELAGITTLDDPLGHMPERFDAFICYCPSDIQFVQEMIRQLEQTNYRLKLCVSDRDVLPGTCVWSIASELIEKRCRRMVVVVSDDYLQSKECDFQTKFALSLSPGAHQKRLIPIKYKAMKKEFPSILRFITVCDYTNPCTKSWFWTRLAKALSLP
# UniProt O75431: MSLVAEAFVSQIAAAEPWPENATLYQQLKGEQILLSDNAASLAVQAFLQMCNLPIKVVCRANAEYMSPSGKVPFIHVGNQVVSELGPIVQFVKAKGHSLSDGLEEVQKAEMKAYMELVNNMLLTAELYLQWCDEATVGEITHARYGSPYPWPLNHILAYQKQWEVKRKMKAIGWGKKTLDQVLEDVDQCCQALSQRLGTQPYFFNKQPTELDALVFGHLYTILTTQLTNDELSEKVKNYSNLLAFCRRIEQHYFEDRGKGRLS
# UniProt P50539: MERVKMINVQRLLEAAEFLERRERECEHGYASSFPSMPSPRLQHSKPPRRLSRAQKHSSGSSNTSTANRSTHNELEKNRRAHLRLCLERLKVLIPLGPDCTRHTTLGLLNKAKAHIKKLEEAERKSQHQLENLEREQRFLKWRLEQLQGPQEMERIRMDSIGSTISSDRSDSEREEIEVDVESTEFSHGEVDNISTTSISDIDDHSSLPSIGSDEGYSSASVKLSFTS
# This is one part of the list.
# Compound: CC1Cc2ccccc2N1C(=O)C1CCCN(C1)C(=O)CCl (mixture of isomers) [TRIM25 ligand 11 (diastereomer mixture)]
# Experiment: probe-labelled cysteine peptide fold change vs DMSO (competition) (log2 fold change); higher = less target engagement (more negative = stronger competition)
# Settings: THP-1, incubation time: 4 h
# 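Further: competitive chemoproteomic profiling in live THP-1 cells with an iodoacetamide desthiobiotin (IA-DTB) probe, comparing probe-labelled peptide intensities in compound-treated cells against DMSO-treated controls.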
Target,probe-labelled cysteine peptide fold change (10 µM),probe-labelled cysteine peptide fold change (50 µM)
MTPN_P58546_45_KPLHYAADCGQLEILEFLLLK (UniProt P58546),0.0367,0.0551
MRPS16_Q9Y3D3_26_LALGGCTNRPFYR (UniProt Q9Y3D3),-0.227,-0.0358
MYBBP1A_Q9BQG0_884_IFTHHLCR (UniProt Q9BQG0),0.0154,0.0898
MYBBP1A_Q9BQG0_614+623_SPAESCDLLGDIQTCIR (UniProt Q9BQG0),-0.339,-0.434
MYCBP2_O75592_4406+4413_NEEHCLPCLHGCDK (UniProt O75592),-0.0669,–
MYBBP1A_Q9BQG0_614_SPAESCDLLGDIQTCIR (UniProt Q9BQG0),0.161,0.12
MX2_P20592_407_CGADIPSQEADK (UniProt P20592),0.0322,-0.0749
MTA3_Q9BTC8_109_CSVALLNETESVLSYLDK (UniProt Q9BTC8),0.851,–
MTA2_O94776_126_EDCFFYSLVFDPVQK (UniProt O94776),0.0909,0.0304
MTMR1_Q13613_507_VGHGNDNHADADRSPIFLQFVDCVWQMTR (UniProt Q13613),0.0376,0.196
MTREX_P42285_399_KDCEAYALQMTK (UniProt P42285),-0.044,0.0596
MTR_Q99707_812_VIDLGVMTPCDK (UniProt Q99707),0.0694,-0.164
MSL1_Q68DK7_221_KSPLGGGGGSGASSQAACLK (UniProt Q68DK7),-0.211,-0.385
MTHFS_P49914_180_EQICLQVPVNENDMK (UniProt P49914),-0.00999,–
MSN_P26038_117_EGILNDDIYCPPETAVLLASYAVQSK (UniProt P26038),0.106,0.0315
MTR_Q99707_798_NIVGVVLGCNNFR (UniProt Q99707),0.164,0.109
MTHFD1L_Q6UB35_291_LHEADIVVLGSPKPEEIPLTWIQPGTTVLNCSHDFLSGK (UniProt Q6UB35),0.0247,0.0744
MYCBP2_O75592_645_IVVYTACNNGSSSVISK (UniProt O75592),-0.0457,0.123
MRPL45_Q9BRJ2_80_SIHLACTAGIFDAYVPPEGDAR (UniProt Q9BRJ2),0.173,0.0257
MSH2_P43246_199_ECVLPGGETAGDMGK (UniProt P43246),0.0606,-0.0735
MUM1_Q2TAK8_548_GSPEEPVVGCPLGQR (UniProt Q2TAK8),0.0492,-0.156

Target,probe-labelled cysteine peptide fold change (10 µM),probe-labelled cysteine peptide fold change (50 µM)
MTMR6_Q9Y217_156_ICETYPR (UniProt Q9Y217),-0.0193,0.0878
MTREX_P42285_297_QFAEWICHLHK (UniProt P42285),-0.00494,0.111
MTMR10_Q9NXD2_70_LICSNFK (UniProt Q9NXD2),-0.00124,0.0561
MTPAP_Q9NVV4_242_LGCDLDMFLDLDETR (UniProt Q9NVV4),-0.0839,-0.14
MTHFD1_P11586_408_STTTIGLVQALGAHLYQNVFACVR (UniProt P11586),-0.373,-0.246
MTO1_Q9Y2Z2_707_TDQYLCDADR (UniProt Q9Y2Z2),-0.063,-0.152
MRPS17_Q9Y2R5_58_TYFAHDALQQCTVGDIVLLR (UniProt Q9Y2R5),0.427,0.267
MTA2_O94776_209_ALDCSSSIR (UniProt O94776),-0.025,–
MSL3P1_P0C860_127_LVQLPCHTNIITILESYVK (UniProt P0C860),-0.0712,0.2
MYH9_P35579_740_QACVLMIK (UniProt P35579),-0.0491,0.183
MYCBP2_O75592_3786_NITINCVK (UniProt O75592),-0.237,0.117
MTRF1_O75570_335_LVHIPTGLVVECQQER (UniProt O75570),0.297,-0.12
MYH10_P35580_1011_IAECSSQLAEEEEK (UniProt P35580),-0.0841,-0.0448
MYBBP1A_Q9BQG0_338_HYGEHVCTAK (UniProt Q9BQG0),0.0577,0.121
MYCBP2_O75592_222_FSHPSLCLR (UniProt O75592),-0.00661,0.00547
MYD88_Q99836_168_FDAFICYCPSDIQFVQEMIR (UniProt Q99836),-0.0867,0.111
MTM1_Q13496_444_NHTDADRSPIFLQFIDCVWQMSK (UniProt Q13496),0.172,0.0648
MRPL58_Q14197_82_LTISYCR (UniProt Q14197),0.0153,0.0178
MTFR2_Q6P444_50_MLPLEPCR (UniProt Q6P444),-0.0301,0.00323
MYBBP1A_Q9BQG0_890_RYCHDLGER (UniProt Q9BQG0),-0.034,0.0213
MYBBP1A_Q9BQG0_363_FAPEMDDYVGTFLEGCQDDPER (UniProt Q9BQG0),0.0345,-0.0128

Target,probe-labelled cysteine peptide fold change (10 µM),probe-labelled cysteine peptide fold change (50 µM)
MYD88_Q99836_233_ECDFQTK (UniProt Q99836),-0.0607,0.0123
MUS81_Q96NY9_74_ILQHFGDGLCR (UniProt Q96NY9),-0.0267,-0.0348
MSTO1_Q9BUK6_232_LHFYVEECDYLQGFQILCDLHDGFSGVGAK (UniProt Q9BUK6),0.183,-0.0331
MSH3_P20585_803_EQLVLDCSAEWLDFLEK (UniProt P20585),0.0557,0.134
MYH9_P35579_1437_QSACNLEK (UniProt P35579),-0.00871,-0.0988
MSH6_P52701_108_MEGYPWWPCLVYNHPFDGTFIR (UniProt P52701),0.26,0.229
MYBBP1A_Q9BQG0_942_GNTAEGCVHETQEK (UniProt Q9BQG0),0.000786,-0.183
MTOR_P42345_1999_NMCEHSNTLVQQAMMVSEELIR (UniProt P42345),0.128,-0.224
MYH9_P35579_789+790_ITDVIIGFQACCR (UniProt P35579),0.117,0.187
MYH9_P35579_1379_KMEDSVGCLETAEEVKR (UniProt P35579),-0.22,-0.145
MTHFD1L_Q6UB35_828_AGAFDAVPCYHWSVGGK (UniProt Q6UB35),0.125,-0.12
MTHFS_P49914_160_CLQHQEVKPYTLALAFK (UniProt P49914),-0.136,-0.147
MTX2_O75431_246_NYSNLLAFCR (UniProt O75431),-0.0643,-0.00642
MXI1_P50539_100_LKVLIPLGPDCTR (UniProt P50539),-0.0602,-0.152
MTHFD1_P11586_195_IVGAPMHDLLLWNNATVTTCHSK (UniProt P11586),-0.0578,-0.0808
MRPS24_Q96EL2_103_FMWGTFPGCLADQLVLK (UniProt Q96EL2),0.183,0.203
MYBBP1A_Q9BQG0_305_MQFWPASYLCFR (UniProt Q9BQG0),0.152,0.358
MSH6_P52701_783_QWLCAPLCNHYAINDRLDAIEDLMVVPDK (UniProt P52701),0.182,-0.0199
MYCBP2_O75592_4393_THPCGHPCGGVK (UniProt O75592),-0.0685,-0.0531
MTX2_O75431_189_TLDQVLEDVDQCCQALSQR (UniProt O75431),-0.297,0.14
MUT_P22033_433_VADPWGGSYMMECLTNDVYDAALK (UniProt P22033),-0.034,-0.0693

Target,probe-labelled cysteine peptide fold change (10 µM),probe-labelled cysteine peptide fold change (50 µM)
MS4A6A_Q9H2W1_240_MTHDCGYEELLTS (UniProt Q9H2W1),0.184,-0.206
MSH2_P43246_641_HACVEVQDEIAFIPNDVYFEK (UniProt P43246),0.0508,0.0552
MTA2_O94776_106_CSVTLLNETDILSQYLEK (UniProt O94776),0.0256,0.178
MYH9_P35579_569_DKADFCIIHYAGK (UniProt P35579),-0.15,-0.15
MRPS18A_Q9NVS2_108_ITGLCQEEHR (UniProt Q9NVS2),-0.0526,-0.0578
MTHFD1L_Q6UB35_778+779_EYTEENIQLVADGCCNLQK (UniProt Q6UB35),0.103,-0.0967
MTHFD1_P11586_143_GDLNDCFIPCTPK (UniProt P11586),0.0612,-0.0554
MTERF4_Q7Z6M4_219_ILHSCPSVLR (UniProt Q7Z6M4),0.23,0.163
MYCBP2_O75592_4669+4672_QLEGTECPLHVVHPPTGEEFALGCGVCR (UniProt O75592),-0.229,-0.193
MRPS2_Q9Y399_162_DCGEYAHTR (UniProt Q9Y399),0.0375,0.263
MTMR2_Q13614_155_GENSYGLETVCK (UniProt Q13614),0.0206,-0.109
MRPS7_Q9Y2R9_152_NCEPMIGLVPILK (UniProt Q9Y2R9),-0.00514,0.0373
MYCBP2_O75592_4638_EELPHCPAGPK (UniProt O75592),-0.0878,-0.171
MTHFSD_Q2M296_184_ETPVVTIVHDCQVVDIPEELVEEHDITVDYILTPTR (UniProt Q2M296),0.271,0.127
MYCBP2_O75592_4233_LWLALASLCVLDQDHVDR (UniProt O75592),-0.327,0.22
MTMR12_Q9C0I1_694_HHSQQAPQAEAPCLLR (UniProt Q9C0I1),0.0716,-0.26
MUT_P22033_540_CLAALTECAASGDGNILALAVDASR (UniProt P22033),0.121,-0.00639
MYD88_Q99836_203_LCVSDRDVLPGTCVWSIASELIEKR (UniProt Q99836),-0.217,-0.0311
MTHFD1L_Q6UB35_906_YTQQGFGNLPICMAK (UniProt Q6UB35),0.0783,0.0417
MSL1_Q68DK7_125_QAGIGGEPAAAGAGCSPR (UniProt Q68DK7),0.0866,-0.0946
MYB_P10242_374_CMIVHQGTILDNVK (UniProt P10242),0.0276,-0.0674
